Paper PMC4226566
Where a chain is given by its changes, count along the chain named. Names and notes keep the numbering of the source. No constants are given. Whether binding was seen depends on the method and setting. Binding seen in cells or lysates may run through a third protein. Some results given as binding are weak or reduced against the parent protein; the word gives no strength. For some assays here: Sequences can lack the tags named with a protein.

Chains of the proteins cited; added tags and fusions are not shown. Residues count along the entry.
UniProt P35916, residues 25-1363: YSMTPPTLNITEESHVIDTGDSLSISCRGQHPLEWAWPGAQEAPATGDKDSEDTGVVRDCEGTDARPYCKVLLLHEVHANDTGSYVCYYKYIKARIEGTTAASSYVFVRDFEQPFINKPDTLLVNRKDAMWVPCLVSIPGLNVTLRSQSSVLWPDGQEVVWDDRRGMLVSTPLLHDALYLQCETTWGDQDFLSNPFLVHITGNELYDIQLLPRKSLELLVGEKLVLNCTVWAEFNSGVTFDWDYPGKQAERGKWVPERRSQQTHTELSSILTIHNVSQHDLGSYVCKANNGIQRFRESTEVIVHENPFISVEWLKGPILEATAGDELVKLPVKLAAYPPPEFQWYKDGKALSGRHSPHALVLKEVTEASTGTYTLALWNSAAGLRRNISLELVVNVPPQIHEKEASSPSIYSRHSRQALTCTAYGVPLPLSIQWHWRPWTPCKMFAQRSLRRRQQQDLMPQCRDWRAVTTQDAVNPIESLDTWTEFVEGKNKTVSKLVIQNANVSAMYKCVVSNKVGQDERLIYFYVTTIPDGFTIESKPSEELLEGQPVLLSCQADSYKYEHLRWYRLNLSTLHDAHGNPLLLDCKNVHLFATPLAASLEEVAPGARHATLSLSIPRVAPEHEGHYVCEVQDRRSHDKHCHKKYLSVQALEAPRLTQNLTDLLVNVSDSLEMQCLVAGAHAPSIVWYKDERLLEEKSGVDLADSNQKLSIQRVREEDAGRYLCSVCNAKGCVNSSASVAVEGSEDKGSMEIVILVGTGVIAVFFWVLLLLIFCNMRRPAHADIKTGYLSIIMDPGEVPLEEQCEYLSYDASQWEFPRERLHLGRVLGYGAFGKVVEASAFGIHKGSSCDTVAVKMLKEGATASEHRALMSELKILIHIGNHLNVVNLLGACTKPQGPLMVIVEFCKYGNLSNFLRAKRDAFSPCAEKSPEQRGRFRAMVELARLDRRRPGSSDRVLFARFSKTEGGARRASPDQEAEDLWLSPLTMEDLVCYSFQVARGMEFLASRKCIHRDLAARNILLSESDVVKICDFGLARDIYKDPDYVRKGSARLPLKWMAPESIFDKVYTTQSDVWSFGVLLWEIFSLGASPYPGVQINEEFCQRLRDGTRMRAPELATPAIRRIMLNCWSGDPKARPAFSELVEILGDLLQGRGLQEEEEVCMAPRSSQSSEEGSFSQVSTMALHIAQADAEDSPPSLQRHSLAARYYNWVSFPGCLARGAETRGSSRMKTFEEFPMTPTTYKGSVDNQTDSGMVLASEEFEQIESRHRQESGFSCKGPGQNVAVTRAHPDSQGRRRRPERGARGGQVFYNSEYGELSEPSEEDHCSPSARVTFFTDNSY
UniProt P08581, residues 25-1390: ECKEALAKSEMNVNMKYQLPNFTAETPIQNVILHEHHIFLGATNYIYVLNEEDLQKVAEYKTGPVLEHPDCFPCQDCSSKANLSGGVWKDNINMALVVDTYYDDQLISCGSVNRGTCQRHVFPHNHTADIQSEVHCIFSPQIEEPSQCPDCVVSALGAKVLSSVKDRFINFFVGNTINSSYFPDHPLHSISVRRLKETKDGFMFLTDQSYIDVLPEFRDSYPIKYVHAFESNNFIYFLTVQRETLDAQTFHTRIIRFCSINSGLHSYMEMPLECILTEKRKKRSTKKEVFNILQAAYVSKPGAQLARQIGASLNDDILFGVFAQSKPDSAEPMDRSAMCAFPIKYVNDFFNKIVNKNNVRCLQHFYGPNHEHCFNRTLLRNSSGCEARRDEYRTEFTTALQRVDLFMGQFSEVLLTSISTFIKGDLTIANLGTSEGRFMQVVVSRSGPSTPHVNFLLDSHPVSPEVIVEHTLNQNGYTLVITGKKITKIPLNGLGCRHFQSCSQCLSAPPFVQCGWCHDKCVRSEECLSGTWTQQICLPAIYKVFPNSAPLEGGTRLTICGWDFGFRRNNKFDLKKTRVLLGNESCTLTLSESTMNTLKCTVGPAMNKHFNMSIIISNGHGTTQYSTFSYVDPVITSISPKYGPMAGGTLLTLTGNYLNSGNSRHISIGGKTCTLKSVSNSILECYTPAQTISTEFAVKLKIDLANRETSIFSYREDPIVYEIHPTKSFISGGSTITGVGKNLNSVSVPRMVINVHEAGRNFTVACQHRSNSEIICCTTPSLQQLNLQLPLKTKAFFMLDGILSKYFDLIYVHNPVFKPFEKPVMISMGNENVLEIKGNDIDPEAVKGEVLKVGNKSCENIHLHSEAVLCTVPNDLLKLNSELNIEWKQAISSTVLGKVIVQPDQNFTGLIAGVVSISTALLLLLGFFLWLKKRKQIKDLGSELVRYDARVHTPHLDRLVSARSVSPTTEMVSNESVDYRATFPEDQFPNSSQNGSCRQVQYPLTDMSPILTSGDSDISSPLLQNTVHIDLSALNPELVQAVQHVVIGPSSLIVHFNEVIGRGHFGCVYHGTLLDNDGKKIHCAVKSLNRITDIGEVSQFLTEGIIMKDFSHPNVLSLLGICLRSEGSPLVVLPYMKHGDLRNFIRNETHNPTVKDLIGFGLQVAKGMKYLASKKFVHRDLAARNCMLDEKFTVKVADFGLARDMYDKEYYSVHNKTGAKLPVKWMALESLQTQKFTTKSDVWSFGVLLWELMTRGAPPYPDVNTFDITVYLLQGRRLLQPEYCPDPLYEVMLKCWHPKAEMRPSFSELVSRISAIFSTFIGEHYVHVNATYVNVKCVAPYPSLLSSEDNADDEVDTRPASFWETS

Tests used:
[1] = target: VEGFR3 (human (endogenous in TIME cells)) (UniProt P35916); experiment: proximity ligation; Duolink II; transfected TIME cells starved 4 hours, stimulated with HGF or VEGFC, fixed with 4% paraformaldehyde and permeabilised; anti-DDK mouse monoclonal with rabbit polyclonal cMET (C28) or VEGFR3 (C20); spots quantified with ImageJ
[2] = target: cMET (receptor tyrosine kinase, receptor of HGF) (human (endogenous in TIME cells)) (UniProt P08581); experiment: as above
[3] = target: VEGFR3 (human (endogenous in TIME cells)) (UniProt P35916); experiment: co-IP; naive TIME cells serum-starved overnight, stimulated with HGF and VEGFC for 15 minutes; lysates immunoprecipitated with anti-cMET and anti-VEGFR3 antibodies on agarose beads; blots probed with anti-SHIP2
[4] = target: cMET (receptor tyrosine kinase, receptor of HGF) (human (endogenous in TIME cells)) (UniProt P08581); experiment: as above

B1: FLAG-tagged wild type (WT) SHIP2 (SH2-domain containing 5'-inositol phosphatase-2) (enzyme, UniProt O15357-1 1-1258)
chain: MASACGAPGPGGALGSQAPSWYHRDLSRAAAEELLARAGRDGSFLVRDSESVAGAFALCVLYQKHVHTYRILPDGEDFLAVQTSQGVPVRRFQTLGELIGLYAQPNQGLVCALLLPVEGEREPDPPDDRDASDGEDEKPPLPPRSGSTSISAPTGPSSPLPAPETPTAPAAESAPNGLSTVSHDYLKGSYGLDLEAVRGGASHLPHLTRTLATSCRRLHSEVDKVLSGLEILSKVFDQQSSPMVTRLLQQQNLPQTGEQELESLVLKLSVLKDFLSGIQKKALKALQDMSSTAPPAPQPSTRKAKTIPVQAFEVKLDVTLGDLTKIGKSQKFTLSVDVEGGRLVLLRRQRDSQEDWTTFTHDRIRQLIKSQRVQNKLGVVFEKEKDRTQRKDFIFVSARKREAFCQLLQLMKNKHSKQDEPDMISVFIGTWNMGSVPPPKNVTSWFTSKGLGKTLDEVTVTIPHDIYVFGTQENSVGDREWLDLLRGGLKELTDLDYRPIAMQSLWNIKVAVLVKPEHENRISHVSTSSVKTGIANTLGNKGAVGVSFMFNGTSFGFVNCHLTSGNEKTARRNQNYLDILRLLSLGDRQLNAFDISLRFTHLFWFGDLNYRLDMDIQEILNYISRKEFEPLLRVDQLNLEREKHKVFLRFSEEEISFPPTYRYERGSRDTYAWHKQKPTGVRTNVPSWCDRILWKSYPETHIICNSYGCTDDIVTSDHSPVFGTFEVGVTSQFISKKGLSKTSDQAYIEFESIEAIVKTASRTKFFIEFYSTCLEEYKKSFENDAQSSDNINFLKVQWSSRQLPTLKPILADIEYLQDQHLLLTVKSMDGYESYGECVVALKSMIGSTAQQFLTFLSHRGEETGNIRGSMKVRVPTERLGTRERLYEWISIDKDEAGAKSKAPSVSRGSQEPRSGSRKPAFTEASCPLSRLFEEPEKPPPTGRPPAPPRAAPREEPLTPRLKPEGAPEPEGVAAPPPKNSFNNPAYYVLEGVPHQLLPPEPPSPARAPVPSATKNKVAITVPAPQLGHHRHPRVGEGSSSDEESGGTLPPPDFPPPPLPDSAIFLPPSLDPLPGPVVRGRGGAEARGPPPPKAHPRPPLPPGPSPASTFLGEVASGDDRSCSVLQMAKTLSEVDYAPAGPARSALLPGPLELQPPRGLPSDYGRPLSFPPPRIRESIQEDLAEEAPCLQGGRASGLGEAGMSAWLRAIGLERYEEGLVHNGWDDLEFLSDITEEDLEEAGVQDPAHKRLLLDTLQLSK
[1]
  binding: binds
[2]
  binding: binds

B2: FLAG-tagged T180A SHIP2 mutant (enzyme, UniProt O15357-1 1-1258)
chain: B1 chain with T180A
[1]
  binding: binds

B3: endogenous SHIP2 (enzyme, UniProt O15357-1 1-1258)
chain: B1 chain
[3]
  binding: binds
[4]
  binding: binds
